Screen size: about 31,000 sequences; about 1,400 (4.5%) were called active.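 How the source made its calls: active means median seed-adjusted z-score above 1 or below -1; inactive means the rest.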 The list shows a part of the results.

A short description of this assay: Novel Modifiers of Survival Motor Neuron (SMN) Protein: Gene Identification via Genome-wide siRNA Screen.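 Further: luminescence tracks full-length SMN protein made from the SMN2 reporter.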 Particulars: HEK293T SMN2-luciferase reporter, siRNA knockdown, 72 h; actives lie on both sides. Put shortly: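 Each of three siRNAs per gene is reverse-transfected (1 pmol) into reporter HEK293T cells whose luciferase output tracks SMN protein level. After 72 h culture, ONE-Glo luminescence is control-normalized, log10-transformed and MAD-standardized; Common Seed Analysis deprioritizes seed-driven hits.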
Take CCCUAAUUCUGAUAUCGUATT against CLPX: the median seed-adjusted z-score is inactive: -0.0436.
As for GCUUUAGCCUGAAGUCAAATT against HKR1, the median seed-adjusted z-score is inactive: -0.358.
The result for GAGCGAUAAUUGUGAGGAUTT against TF reads inactive: 0.192; that for AAGUCAUUUUACAACGAAATT against SLC2A7, inactive: -0.0337; that for CUUCUGUACCCAUCAGUAATT against SARS, inactive: 0.377.
The result for GACCCGAGGUGUUUUCUGATT against C1RL reads inactive: -0.148; that for CGGUUCCGCUGAGAUCAGATT against AATK, inactive: -0.621; that for CUCUCACCGUUUCCACAAATT against EHMT1, inactive: 0.00857.
The result for CAAAAACAGCGUACAUCUATT against HECTD2 reads inactive: 0.405; that for GACCCACUCUUGAAAGACATT against ZNF304, inactive: -0.44; that for GAGAAUUUGUGAAUCUUCATT against RNF138, inactive: 0.265.
Turning to CAUUCAAGAUGACUGUUCUTT against HTR3D, the median seed-adjusted z-score is inactive: 0.776.
The result for CCUCCGCACUGAGAGAGAATT against ZFPL1 reads inactive: -0.072.
The result for GCAGAUUAUUUGCAAGCGATT against ULK2 reads inactive: -0.0393; that for UCUCAGUUGUUAAAAGUAUTT against RHOF, inactive: 0.0711; that for GACGGACAUUUGAUAAACATT against SP3, inactive: -0.0943.
The result for CAACACCUCUUACGAUAAATT against ZNF638 reads inactive: 0.63; that for GUAGUACCCGUCUUCCAGATT against PIGH, inactive: -0.327; that for CGUUCUCGCCCGCAAUUUATT against TCEAL1, inactive: -0.263.
On to GGUUUGUGGUGGAAGAUUATT against PLCD3, for which the median seed-adjusted z-score is inactive: 0.228.
The result for GAGUAUUGAUGAUAUGUUATT against RAD9B reads inactive: 0.0879; that for CAACGAUCCCUGUACCAGUTT against GABBR2, inactive: -0.038.
The result for GUAGCUUCCCGGUUAAGUATT against NUMB reads inactive: -0.599; that for GAAUUAUGCUACUCGAGAATT against EIF3A, inactive: -0.689.
The result for GGUCUGUACCAGUCUAUAATT against RFESD reads inactive: -0.503; that for CCAUCACCUCGCUAAAGAATT against RAD54L, inactive: -0.393.
As to GGCUCUUAAUUAUUAUCUUTT against GHR, the median seed-adjusted z-score is inactive: 0.273.
For GGGAUUCCAUUGACCAGAATT against PLCG2, the median seed-adjusted z-score was inactive: 0.
For CCACAAUCCUUGACAACGATT against SLC1A1, the median seed-adjusted z-score is inactive: 0.0967.
Regarding GAGCAUUAUGUUACACCAATT against TTC6, the median seed-adjusted z-score is inactive: 0.234.

These data come from PubChem BioAssay AID1347426 (Functional Genomics Laboratory (NCATS/FGL), 2020).
